According to article PMC3053352:
No constants are given. Whether binding was seen depends on the method and setting. Some results given as binding are weak or reduced against the parent protein; the word gives no strength. Blank lines part the entries; values can stand above or below the binder they belong to.

The chains behind the UniProt entries cited, without tags or fusion partners.
UniProt O75475: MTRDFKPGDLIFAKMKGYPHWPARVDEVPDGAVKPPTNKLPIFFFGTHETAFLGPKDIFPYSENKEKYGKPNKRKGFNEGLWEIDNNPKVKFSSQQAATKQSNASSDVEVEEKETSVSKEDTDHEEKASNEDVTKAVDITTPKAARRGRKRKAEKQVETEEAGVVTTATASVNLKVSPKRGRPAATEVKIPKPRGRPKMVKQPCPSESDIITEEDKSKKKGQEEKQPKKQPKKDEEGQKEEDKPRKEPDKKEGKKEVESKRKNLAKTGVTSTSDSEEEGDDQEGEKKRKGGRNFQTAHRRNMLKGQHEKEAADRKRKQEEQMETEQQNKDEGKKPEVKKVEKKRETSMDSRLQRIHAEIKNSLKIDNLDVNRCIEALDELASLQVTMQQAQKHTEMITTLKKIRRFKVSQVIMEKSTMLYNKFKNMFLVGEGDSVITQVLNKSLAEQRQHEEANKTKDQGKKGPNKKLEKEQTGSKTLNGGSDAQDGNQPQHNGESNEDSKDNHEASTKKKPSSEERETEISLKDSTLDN

Biological target: Ledgf/p75 (product of the PSIP1 gene) (UniProt O75475)
Assay: two-hybrid; yeast two-hybrid screens; unpublished data; bait, prey and conditions not told

binding: binds
B1: WDHD1 gene product (protein, UniProt O75717 1-1129)
chain: MPATRKPMRYGHTEGHTEVCFDDSGSFIVTCGSDGDVRIWEDLDDDDPKFINVGEKAYSCALKSGKLVTAVSNNTIQVHTFPEGVPDGILTRFTTNANHVVFNGDGTKIAAGSSDFLVKIVDVMDSSQQKTFRGHDAPVLSLSFDPKDIFLASASCDGSVRVWQISDQTCAISWPLLQKCNDVINAKSICRLAWQPKSGKLLAIPVEKSVKLYRRESWSHQFDLSDNFISQTLNIVTWSPCGQYLAAGSINGLIIVWNVETKDCMERVKHEKGYAICGLAWHPTCGRISYTDAEGNLGLLENVCDPSGKTSSSKVSSRVEKDYNDLFDGDDMSNAGDFLNDNAVEIPSFSKGIINDDEDDEDLMMASGRPRQRSHILEDDENSVDISMLKTGSSLLKEEEEDGQEGSIHNLPLVTSQRPFYDGPMPTPRQKPFQSGSTPLHLTHRFMVWNSIGIIRCYNDEQDNAIDVEFHDTSIHHATHLSNTLNYTIADLSHEAILLACESTDELASKLHCLHFSSWDSSKEWIIDLPQNEDIEAICLGQGWAAAATSALLLRLFTIGGVQKEVFSLAGPVVSMAGHGEQLFIVYHRGTGFDGDQCLGVQLLELGKKKKQILHGDPLPLTRKSYLAWIGFSAEGTPCYVDSEGIVRMLNRGLGNTWTPICNTREHCKGKSDHYWVVGIHENPQQLRCIPCKGSRFPPTLPRPAVAILSFKLPYCQIATEKGQMEEQFWRSVIFHNHLDYLAKNGYEYEESTKNQATKEQQELLMKMLALSCKLEREFRCVELADLMTQNAVNLAIKYASRSRKLILAQKLSELAVEKAAELTATQVEEEEEEEDFRKKLNAGYSNTATEWSQPRFRNQVEEDAEDSGEADDEEKPEIHKPGQNSFSKSTNSSDVSAKSGAVTFSSQGRVNPFKVSASSKEPAMSMNSARSTNILDNMGKSSKKSTALSRTTNNEKSPIIKPLIPKPKPKQASAASYFQKRNSQTNKTEEVKEENLKNVLSETPAICPPQNTENQRPKTGFQMWLEENRSNILSDNPDFSDEADIIKEGMIRFRVLSTEERKVWANKAKGETASEGTEAKKRKRVVDESDETENQEEKAKENLNLSKKQKPLDFSTNQKLSAFAFKQE

binding: binds
B2: WDR46 gene product (protein, UniProt O15213 1-610)
chain: METAPKPGKDVPPKKDKLQTKRKKPRRYWEEETVPTTAGASPGPPRNKKNRELRPQRPKNAYILKKSRISKKPQVPKKPREWKNPESQRGLSGTQDPFPGPAPVPVEVVQKFCRIDKSRKLPHSKAKTRSRLEVAEAEEEETSIKAARSELLLAEEPGFLEGEDGEDTAKICQADIVEAVDIASAAKHFDLNLRQFGPYRLNYSRTGRHLAFGGRRGHVAALDWVTKKLMCEINVMEAVRDIRFLHSEALLAVAQNRWLHIYDNQGIELHCIRRCDRVTRLEFLPFHFLLATASETGFLTYLDVSVGKIVAALNARAGRLDVMSQNPYNAVIHLGHSNGTVSLWSPAMKEPLAKILCHRGGVRAVAVDSTGTYMATSGLDHQLKIFDLRGTYQPLSTRTLPHGAGHLAFSQRGLLVAGMGDVVNIWAGQGKASPPSLEQPYLTHRLSGPVHGLQFCPFEDVLGVGHTGGITSMLVPGAGEPNFDGLESNPYRSRKQRQEWEVKALLEKVPAELICLDPRALAEVDVISLEQGKKEQIERLGYDPQAKAPFQPKPKQKGRSSTASLVKRKRKVMDEEHRDKVRQSLQQQHHKEAKAKPTGARPSALDRFVR
